Reference: PubChem BioAssay AID1347426 (Functional Genomics Laboratory (NCATS/FGL), 2020)
The campaign covered roughly 31,000 sequences. About 1,400 (4.5%) were called active.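 The calls were made as follows: active = median seed-adjusted z-score above 1 or below -1; inactive = the rest.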 This is one part of the list.

Assay: Novel Modifiers of Survival Motor Neuron (SMN) Protein: Gene Identification via Genome-wide siRNA Screen;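 also: luminescence tracks full-length SMN protein made from the SMN2 reporter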
Conditions: HEK293T SMN2-luciferase reporter, siRNA knockdown, 72 h; actives lie on both sides
Summary of the method: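 HEK293T cells stably expressing an SMN2 splicing/cDNA-luciferase reporter were reverse-transfected with a druggable-genome siRNA library and read by luminescence at 72 hours; hits defined by MAD score above 1.0 or below -1.0.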
In the case of AGGUGUUAUUCGUCAUGUUTT against TRPM3, the median seed-adjusted z-score is reported as inactive: -0.633.
For CAUCAUCUAUGUAAGCCUATT against PRKD1, the median seed-adjusted z-score was inactive: -0.323.
With CCAGGUUGUUUUACGAAUATT against IDI1 the median seed-adjusted z-score was inactive: -0.0118.
In the case of GGAAUUACUACUCACCUAUTT against TRHR, the median seed-adjusted z-score is reported as inactive: -0.873.
For AGAUGCCUUUAGAAGAUGATT against NPPA, the median seed-adjusted z-score was inactive: -0.897.
In the case of GCAGGUACAUGUCUUGUCUTT against SPRY2, the median seed-adjusted z-score is reported as inactive: 0.148.
With GGACCGUCUACUCAUCCAATT against IL8RB the median seed-adjusted z-score was inactive: -0.387.
With UAACGAGGAUGAUAUUGUATT against RCBTB2 the median seed-adjusted z-score was inactive: 0.235.
With CUUCAGUUCUAGCGUCAACTT against LTB4R2 the median seed-adjusted z-score was inactive: -0.26.
With CCAACCGCAUGAUUCCACATT against RBMS3 the median seed-adjusted z-score was inactive: 0.0976.
For GGCAAUUAAUGGAACAGUUTT against MTMR8, the median seed-adjusted z-score was inactive: -0.416.
For ACUCGACUUCUGAACUGGATT against TPD52L3, the median seed-adjusted z-score was inactive: 0.552.
In the case of GCUUAAAGUAUGCAACUAUTT against FPGT, the median seed-adjusted z-score is reported as inactive: 0.36.
With CCACAUGACUUAUUAUGCATT against DCN the median seed-adjusted z-score was inactive: 0.326.
With CCAAUGUGGUACUCAAAAATT against TRIM64 the median seed-adjusted z-score was inactive: -0.024.
With CGGCCUACUUCUGCAUCUATT against SPHK2 the median seed-adjusted z-score was inactive: 0.
In the case of CCUAUCAAGUUUGAGCUUUTT against CTGF, the median seed-adjusted z-score is reported as inactive: -0.181.
With CCAGCAUAUCAAUAGAUUATT against SLC25A32 the median seed-adjusted z-score was inactive: -0.299.
In the case of CCGUACCAAUGUCCCAUGATT against IRF4, the median seed-adjusted z-score is reported as inactive: -0.332.
With CAGACAUGAAGUAUAAGAATT against TCEA2 the median seed-adjusted z-score was inactive: 0.552.
In the case of AGGACAUUCCUGCAAUUAATT against ASTL, the median seed-adjusted z-score is reported as inactive: 0.722.
In the case of GCAGAGACUAUUACACGGATT against SGCE, the median seed-adjusted z-score is reported as inactive: 0.202.
With GCAAAGGUGUUGCAUUCUUTT against DCTN5 the median seed-adjusted z-score was inactive: 0.0112.
For CCAUUUGACCAUAAUGAAUTT against ZNF382, the median seed-adjusted z-score was inactive: 0.601.
With GAUUGUCUUCGGUCUAUUATT against STAM the median seed-adjusted z-score was inactive: 0.
In the case of CCCUCAUGAAGAUCAGUGATT against CYP2A6, the median seed-adjusted z-score is reported as inactive: 0.117.
For CCUCUGUUCGUCUACCUCUTT against FZD7, the median seed-adjusted z-score was inactive: -0.159.
In the case of GGCUAUCACGCUUCGAGAATT against AP1M1, the median seed-adjusted z-score is reported as inactive: 0.42.
In the case of GCCCUUGCCUUAUUGCUGATT against MED20, the median seed-adjusted z-score is reported as active: -1.66.
In the case of GGGAGACGGUAGAAUCAGATT against ATP13A4, the median seed-adjusted z-score is reported as active: -1.09.
For GGAUUAUUCAUUAUUACAUTT against NDUFB6, the median seed-adjusted z-score was inactive: -0.357.
With GGUUCAAUGUGGAGACAGUTT against ARF3 the median seed-adjusted z-score was inactive: 0.18.
For GCCUCAGAGUUCACGGACATT against ROBO4, the median seed-adjusted z-score was inactive: -0.431.
With CGGGAGAUCUGCCUACUCATT against CDK5 the median seed-adjusted z-score was inactive: 0.402.
In the case of UCAUCAAUAUUAUCGGGAUTT against CYP4F11, the median seed-adjusted z-score is reported as inactive: 0.307.
With GAAUUCCCUUCUGAGUUAATT against ID2 the median seed-adjusted z-score was inactive: 0.783.
In the case of GCUCGUUACCUACAUAGUATT against ULK2, the median seed-adjusted z-score is reported as inactive: -0.0393.
With GAGCACGUGUAUACAUAUATT against ZNF586 the median seed-adjusted z-score was inactive: -0.973.
For ACAGUUCUCUAUGACCUCATT against PLA2G4E, the median seed-adjusted z-score was inactive: 0.266.
With GGUUUUACAUGACCUGCGATT against MAP3K7IP2 the median seed-adjusted z-score was inactive: 0.0195.
In the case of GGAAGUUCCUGAAUUUGUATT against EPX, the median seed-adjusted z-score is reported as inactive: 0.159.
With CAGUGAACUUGGGAUACAATT against TPMT the median seed-adjusted z-score was inactive: 0.19.
With GCAUAAUCCACCAUCAAUATT against BRAF the median seed-adjusted z-score was inactive: 0.271.
With GUGUCUCGAGUGUGAAAAATT against ZNF322B the median seed-adjusted z-score was inactive: 0.0433.
In the case of CCACCAAAGUUUCCGCAGATT against CDH11, the median seed-adjusted z-score is reported as inactive: -0.457.
For GAGUCUUACUGUAAGCAGUTT against INPP5B, the median seed-adjusted z-score was inactive: 0.
For GAACCUCAGUCAAAUCGAUTT against OXSR1, the median seed-adjusted z-score was inactive: -0.0682.
For GCCGUAGUGUAAUGAUUGATT against ILK, the median seed-adjusted z-score was inactive: -0.231.
In the case of GCAAGUUGGAAGACCGGAATT against XPO5, the median seed-adjusted z-score is reported as inactive: -0.031.
With GAAACUAGUUGUGAUGAUATT against OSGEPL1 the median seed-adjusted z-score was inactive: -0.708.
In the case of CCAAAGAGGUGGGAUUUUUTT against HPDL, the median seed-adjusted z-score is reported as inactive: 0.483.
In the case of GAACCUGAGCGACCUCUAUTT against LRG1, the median seed-adjusted z-score is reported as inactive: 0.668.
For CACAGCAACUUCAAGAAGATT against BTN2A2, the median seed-adjusted z-score was inactive: -0.0599.
With GGACUAUGGUGUAUACCUATT against PRDX4 the median seed-adjusted z-score was inactive: -0.188.
With GAUAGUACUUGGGAACUAATT against CHD9 the median seed-adjusted z-score was inactive: 0.218.
In the case of ACAAGUUUCAAACAGAGUATT against DUSP7, the median seed-adjusted z-score is reported as inactive: 0.
In the case of CAGUUUUAUUCUUGCUCUATT against SEMA4B, the median seed-adjusted z-score is reported as inactive: 0.185.
In the case of GGAUAUCUUUUAUCUACAATT against DHX35, the median seed-adjusted z-score is reported as inactive: -0.066.
With GUGUCAACAUGGUUCAUAUTT against TPH2 the median seed-adjusted z-score was inactive: 0.275.
For CUCUGGUCCUUAUCAGGAATT against AP4S1, the median seed-adjusted z-score was inactive: -0.498.
For CUGUCGAGGCUGCAACAAATT against RNF166, the median seed-adjusted z-score was inactive: -0.3.
In the case of GAGAGUCAGAUGAACUGUATT against GPR37, the median seed-adjusted z-score is reported as inactive: -0.0447.
For GCGAAUGAGUGGUAGAGGATT against ARHGAP21, the median seed-adjusted z-score was inactive: 0.229.
In the case of GAACGGUACCUUAGUGAUATT against MXRA5, the median seed-adjusted z-score is reported as inactive: 0.104.
With CGGGUUACCUGGAACUACATT against COL22A1 the median seed-adjusted z-score was inactive: 0.3.
For UCACUAUGCUGGAUGAACATT against SNAP23, the median seed-adjusted z-score was inactive: 0.31.
With GGAUUCUCAGUUACACUUATT against SLC25A3 the median seed-adjusted z-score was inactive: -0.495.
For GAUCCAGUAUUGUUAGCAATT against RAPGEF2, the median seed-adjusted z-score was inactive: -0.0715.
With GGAAAUGGAUGAUAACCAATT against GPR151 the median seed-adjusted z-score was inactive: -0.263.
In the case of CUGUGAAUGUUGAUGUCCATT against SLC3A1, the median seed-adjusted z-score is reported as inactive: -0.33.
In the case of GUAGAUAUGUGGAAACGGATT against FAM48A, the median seed-adjusted z-score is reported as inactive: -0.506.
With GAUCUUGGUUUGAUUCGUATT against RASGRP3 the median seed-adjusted z-score was inactive: 0.0202.
For ACUUCUACACGUUUCCAAATT against THAP11, the median seed-adjusted z-score was active: -1.36.
With CUAUGUAUGUGACCCGUGATT against CDKL5 the median seed-adjusted z-score was inactive: -0.256.
In the case of GCGUCCAAUCAGAACCAAATT against SNAI3, the median seed-adjusted z-score is reported as inactive: -0.195.
With GCCCUUUAAAUGCCCUGAATT against ZNF629 the median seed-adjusted z-score was inactive: 0.0602.
In the case of CCUCCAUUCUGUGCGUUCUTT against GPR148, the median seed-adjusted z-score is reported as inactive: 0.
In the case of CCACAAUUUUAAUCAGGCATT against PCBD2, the median seed-adjusted z-score is reported as inactive: -0.0549.
With GCCUUUUUAGAUUGAGAGATT against MAFF the median seed-adjusted z-score was inactive: 0.42.
In the case of CGACUUCUCAGAAGGCAGATT against GATA4, the median seed-adjusted z-score is reported as inactive: -0.24.
In the case of CGAUUUUAAUCUUCGUGUUTT against IPP, the median seed-adjusted z-score is reported as inactive: 0.298.
In the case of GUACUUCCAUAGACAGGAATT against CECR1, the median seed-adjusted z-score is reported as inactive: 0.00187.
With CAGAGACCCUUGAUAAACUTT against PIK3AP1 the median seed-adjusted z-score was inactive: 0.0678.
With CCAAUUUCCUUAUACGUUUTT against ATP10A the median seed-adjusted z-score was inactive: -0.435.
In the case of GGCAUUACAUCAUCCCACATT against GIT1, the median seed-adjusted z-score is reported as inactive: -0.307.
In the case of GCAUAAUACCAUCACUACUTT against CREB5, the median seed-adjusted z-score is reported as inactive: -0.0542.
For GGGACCAAAAUCAAUGAAATT against PCBP3, the median seed-adjusted z-score was inactive: -0.0373.
For GAGACUCUGUGGACGUAAATT against ZNF101, the median seed-adjusted z-score was inactive: 0.336.
For CCAUGUUCAUCAAAACUCUTT against ARHGAP1, the median seed-adjusted z-score was active: -1.14.
For CUAUGAGGAAUGUCGCAGATT against XPO1, the median seed-adjusted z-score was active: 1.12.
In the case of GGACUUAUUGGGUUAUUAUTT against FOXE3, the median seed-adjusted z-score is reported as inactive: -0.451.
For GACCUGGGCUUAGACAGUUTT against NDUFAB1, the median seed-adjusted z-score was inactive: -0.282.
With CCAUUGCGUUUUUCACCAUTT against PCDH20 the median seed-adjusted z-score was inactive: 0.0594.
In the case of CUACUAUACCUGGACCUCATT against FLII, the median seed-adjusted z-score is reported as inactive: -0.353.
With CGGUGACUGCGGUGAAGAATT against ILVBL the median seed-adjusted z-score was inactive: 0.343.
In the case of GCUGAACAUGAAAAGCUAUTT against ZMYND17, the median seed-adjusted z-score is reported as inactive: -0.00314.
In the case of GAAUGAUGUAUUUAGAUCATT against FCRL4, the median seed-adjusted z-score is reported as inactive: -0.39.
In the case of GAAGCGCAGGCAAAUCAAUTT against FXYD2, the median seed-adjusted z-score is reported as inactive: -0.383.
For GCAGAGGUUUGAAUCCUAUTT against EIF3L, the median seed-adjusted z-score was inactive: 0.656.
With CCUUUGUGCUGGGAUAAAATT against ITLN2 the median seed-adjusted z-score was inactive: 0.00733.
In the case of CGGCAGCUUGGGAAAAAGATT against GPRC5B, the median seed-adjusted z-score is reported as inactive: 0.
For CAUCAAGUUUGACAAGAUUTT against C1QTNF2, the median seed-adjusted z-score was inactive: 0.0697.
In the case of UGAUAGCUUUGAUUCUGCATT against GNG2, the median seed-adjusted z-score is reported as inactive: 0.369.
In the case of CGUAUGCAUUUCACAAUAATT against SERPINB10, the median seed-adjusted z-score is reported as inactive: 0.00387.
In the case of GCUGUGCUCUUGAAGAUCATT against BAG2, the median seed-adjusted z-score is reported as inactive: -0.87.
With GGAUACAUUAAGCUAAUAATT against PRMT3 the median seed-adjusted z-score was inactive: 0.00875.
With GAUUACGGCUUUACCGAAATT against ZIC4 the median seed-adjusted z-score was inactive: 0.512.
